Values of other authors as cited in patent publication US9549912B2, “Methods for treating atrial fibrillation” (Armetheon, Inc., priority 2009, dated 2017).

By UniProt entry, the sequences of proteins in these tests, tags left out.
UniProt P08183, whole entry: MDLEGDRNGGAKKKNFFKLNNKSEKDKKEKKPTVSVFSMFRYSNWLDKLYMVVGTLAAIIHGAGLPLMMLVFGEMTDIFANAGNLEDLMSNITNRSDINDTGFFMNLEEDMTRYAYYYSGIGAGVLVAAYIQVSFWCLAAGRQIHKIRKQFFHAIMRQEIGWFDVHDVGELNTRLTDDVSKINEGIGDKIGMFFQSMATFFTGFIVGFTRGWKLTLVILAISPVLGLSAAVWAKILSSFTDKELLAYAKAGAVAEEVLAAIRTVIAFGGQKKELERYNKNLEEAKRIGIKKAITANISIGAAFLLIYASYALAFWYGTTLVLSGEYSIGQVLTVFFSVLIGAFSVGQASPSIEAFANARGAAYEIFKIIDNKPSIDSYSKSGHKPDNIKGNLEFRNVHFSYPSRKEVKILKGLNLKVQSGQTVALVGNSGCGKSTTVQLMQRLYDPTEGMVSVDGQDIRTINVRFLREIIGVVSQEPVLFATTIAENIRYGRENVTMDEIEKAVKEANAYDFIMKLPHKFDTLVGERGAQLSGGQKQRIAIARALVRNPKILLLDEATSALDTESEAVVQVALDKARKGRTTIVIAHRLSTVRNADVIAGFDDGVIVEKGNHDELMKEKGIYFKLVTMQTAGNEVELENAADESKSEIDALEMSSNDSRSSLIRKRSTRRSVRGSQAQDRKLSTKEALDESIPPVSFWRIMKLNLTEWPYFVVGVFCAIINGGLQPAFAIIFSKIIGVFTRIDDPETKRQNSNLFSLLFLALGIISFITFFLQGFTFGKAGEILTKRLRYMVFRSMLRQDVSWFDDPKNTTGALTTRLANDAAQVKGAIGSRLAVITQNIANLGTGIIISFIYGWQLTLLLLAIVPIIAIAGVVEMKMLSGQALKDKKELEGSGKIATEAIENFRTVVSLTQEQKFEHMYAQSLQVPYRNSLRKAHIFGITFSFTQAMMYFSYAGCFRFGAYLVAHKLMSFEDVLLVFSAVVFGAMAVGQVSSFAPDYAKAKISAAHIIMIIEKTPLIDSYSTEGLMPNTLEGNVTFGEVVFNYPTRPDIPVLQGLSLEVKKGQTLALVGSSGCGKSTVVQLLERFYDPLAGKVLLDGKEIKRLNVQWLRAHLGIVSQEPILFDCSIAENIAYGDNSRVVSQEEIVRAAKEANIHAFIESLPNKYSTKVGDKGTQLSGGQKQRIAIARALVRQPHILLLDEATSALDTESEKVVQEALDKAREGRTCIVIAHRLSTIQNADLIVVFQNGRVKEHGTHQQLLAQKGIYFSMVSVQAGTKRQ

Target: P-glycoprotein (P-gp) (Homo sapiens, UniProt P08183)
Conditions: cited from earlier work

CCCCc1oc2ccccc2c1C(=O)c1cc(I)c(OCCN(CC)CC)c(I)c1 [amiodarone]
P-gp inhibition: inhibitor
